In the supplement of paper PMC4604168 (melanoma cell lines):
Some of the results follow. Single values are uncertain, as repeats are few or missing.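 Cells were imaged in 1,536-well plates, and nuclei stained with an antibody against cleaved PARP were counted against all DNA-stained nuclei to give the apoptosis fraction. Screening doses were chosen to leave most cells alive, and resting and induced cleaved-PARP levels differ strongly between cell lines.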

These compounds were tested on MeWo (assay: cleaved PARP positive nuclei fraction relative to DMSO control; melanoma cells; higher = more apoptosis). Conditions: library dose: low library concentration; 72 h.

Compared with `O=C(Oc1ccc([N+](=O)[O-])cc1)N1CCC(C(O)(c2ccc3c(c2)OCO3)c2ccc3c(c2)OCO3)CC1` + CC(C)CCN1c2nc(Nc3cc(F)c(O)c(F)c3)ncc2N(C)C(=O)C1C [BID1870] (first compound 1 µM, partner dose 0.2 µM), `Cc1ccc(NC(=O)c2cccc(N(C)C)c2)cc1NC(=O)c1ccc(O)cc1` + C/C(O)=C(\C#N)C(=O)Nc1cc(Br)ccc1Br [LFM-A13] (first compound 2 µM, partner dose 2 µM) is higher in “cleaved PARP positive nuclei fraction” value: 50.6% for the first, 53.8% for the second.

First: CO[C@H]1C[C@@H]2CC[C@@H](C)[C@@](O)(O2)C(=O)C(=O)N2CCCC[C@H]2C(=O)O[C@H]([C@H](C)C[C@@H]2CC[C@@H](OCCO)[C@H](OC)C2)CC(=O)[C@H](C)/C=C(\C)[C@@H](O)[C@@H](OC)C(=O)[C@H](C)C[C@H](C)/C=C/C=C/C=C/1C [everolimus] + Cc1cc(SCc2sc(-c3ccc(C(F)(F)F)c(F)c3)nc2C)ccc1OCC(=O)O [GW0742] (first compound 0.02 µM, partner dose 2 µM)
Second: C[C@]12O[C@H](C[C@]1(O)CO)n1c3ccccc3c3c4c(c5c6ccccc6n2c5c31)CNC4=O [Lestaurtinib] + C[C@@H]1CCN(C(=O)CC#N)C[C@@H]1N(C)c1ncnc2[nH]ccc12 [CP690550] (first compound 0.004 µM, partner dose 1 µM)
The “cleaved PARP positive nuclei fraction” value of the first is lower: 53.6% for the first, 109% for the second.

Compared with `COc1cc(Nc2ncc(F)c(Nc3ccc4c(n3)NC(=O)C(C)(C)O4)n2)cc(OC)c1OC` [Tamatinib] + O=C(Oc1ccc([N+](=O)[O-])cc1)N1CCC(C(O)(c2ccc3c(c2)OCO3)c2ccc3c(c2)OCO3)CC1 [JZL184] (first compound 0.4 µM, partner dose 1 µM), `COc1cc2ncnc(Nc3ccc(Oc4ccccc4)cc3)c2cc1OC` + O=C(Oc1ccc([N+](=O)[O-])cc1)N1CCC(C(O)(c2ccc3c(c2)OCO3)c2ccc3c(c2)OCO3)CC1 [JZL184] (first compound 2 µM, partner dose 1 µM) is higher in “cleaved PARP positive nuclei fraction” value: 52.9% for the first, 91.4% for the second.

Going from `C/C(O)=C(\C#N)C(=O)Nc1cc(Br)ccc1Br` + O=C(Oc1ccc([N+](=O)[O-])cc1)N1CCC(C(O)(c2ccc3c(c2)OCO3)c2ccc3c(c2)OCO3)CC1 [JZL184] (first compound 2 µM, partner dose 1 µM) to `N#Cc1c(O)c2c(-c3ccc(-c4ccccc4O)cc3)csc2[nH]c1=O` + C/C(O)=C(\C#N)C(=O)Nc1cc(Br)ccc1Br [LFM-A13] (first compound 2 µM, partner dose 2 µM), the “cleaved PARP positive nuclei fraction” value falls from 53.9% to 27.3%.

`C/C(O)=C(\C#N)C(=O)Nc1cc(Br)ccc1Br` + CC(C)CCN1c2nc(Nc3cc(F)c(O)c(F)c3)ncc2N(C)C(=O)C1C [BID1870] (first compound 2 µM, partner dose 0.2 µM) was tested, and the “cleaved PARP positive nuclei fraction” value was 69%.

What follows are compounds tested on RPMI7951 in the same assay as above. Conditions: library dose: low library concentration; 72 h.

First: C[C@]12O[C@H](C[C@]1(O)CO)n1c3ccccc3c3c4c(c5c6ccccc6n2c5c31)CNC4=O [Lestaurtinib] + CCN(CC)CCCCNc1ncc2cc(-c3cc(OC)cc(OC)c3)c(NC(=O)NC(C)(C)C)nc2n1 [PD173074] (first compound 0.004 µM, partner dose 0.1 µM)
Second: N#Cc1c(O)c2c(-c3ccc(-c4ccccc4O)cc3)csc2[nH]c1=O + O=C(Oc1ccc([N+](=O)[O-])cc1)N1CCC(C(O)(c2ccc3c(c2)OCO3)c2ccc3c(c2)OCO3)CC1 [JZL184] (first compound 2 µM, partner dose 1 µM)
The “cleaved PARP positive nuclei fraction” value of the first is lower: 53.3% for the first, 147% for the second.

Compared with `C[C@]12O[C@H](C[C@]1(O)CO)n1c3ccccc3c3c4c(c5c6ccccc6n2c5c31)CNC4=O` [Lestaurtinib] + O=c1cc(-c2cccc3c2Sc2ccccc2S3)oc(N2CCOCC2)c1 [KU55933] (first compound 0.004 µM, partner dose 1 µM), `O=C(O)c1ccc(-c2c[nH]c3ncc(-c4ccccc4)cc23)cc1C1CCCC1` + O=C(Oc1ccc([N+](=O)[O-])cc1)N1CCC(C(O)(c2ccc3c(c2)OCO3)c2ccc3c(c2)OCO3)CC1 [JZL184] (first compound 0.16 µM, partner dose 1 µM) is higher in “cleaved PARP positive nuclei fraction” value: 75.2% for the first, 159% for the second.

Going from `CCc1ccc(CCOc2ccc(CC3SC(=O)NC3=O)cc2)nc1` (stereo not given) [pioglitazone] + O=C(Oc1ccc([N+](=O)[O-])cc1)N1CCC(C(O)(c2ccc3c(c2)OCO3)c2ccc3c(c2)OCO3)CC1 [JZL184] (first compound 2 µM, partner dose 1 µM) to `O=C1NC(=O)/C(=C/c2ccc(-c3ccc(F)cc3O)o2)S1` + O=C(Oc1ccc([N+](=O)[O-])cc1)N1CCC(C(O)(c2ccc3c(c2)OCO3)c2ccc3c(c2)OCO3)CC1 [JZL184] (first compound 1 µM, partner dose 1 µM), the “cleaved PARP positive nuclei fraction” value falls from 83% to 60.7%.

First: COc1cc2c(Oc3ccc4[nH]c(C)cc4c3F)ncnc2cc1OCCCN1CCCC1 [cediranib] + Cc1cc(SCc2sc(-c3ccc(C(F)(F)F)c(F)c3)nc2C)ccc1OCC(=O)O [GW0742] (first compound 0.4 µM, partner dose 2 µM)
Second: Cc1cc(SCc2sc(-c3ccc(C(F)(F)F)c(F)c3)nc2C)ccc1OCC(=O)O + O=C(Oc1ccc([N+](=O)[O-])cc1)N1CCC(C(O)(c2ccc3c(c2)OCO3)c2ccc3c(c2)OCO3)CC1 [JZL184] (first compound 2 µM, partner dose 1 µM)
The “cleaved PARP positive nuclei fraction” value of the first is lower: 75.2% for the first, 83.5% for the second.

Going from `Cc1cc(SCc2sc(-c3ccc(C(F)(F)F)c(F)c3)nc2C)ccc1OCC(=O)O` + COc1cc(N2CCC(N3CCN(C)CC3)CC2)ccc1Nc1ncc(Cl)c(Nc2ccccc2S(=O)(=O)C(C)C)n1 [NVP-TAE684] (first compound 2 µM, partner dose 0.08 µM) to `NCC(=O)Nc1ccc(-n2nc(C(F)(F)F)cc2-c2ccc3c(ccc4ccccc43)c2)cc1` + O=C(Oc1ccc([N+](=O)[O-])cc1)N1CCC(C(O)(c2ccc3c(c2)OCO3)c2ccc3c(c2)OCO3)CC1 [JZL184] (first compound 1 µM, partner dose 1 µM), the “cleaved PARP positive nuclei fraction” value falls from 231% to 33.4%.

Going from `C[C@]12O[C@H](C[C@]1(O)CO)n1c3ccccc3c3c4c(c5c6ccccc6n2c5c31)CNC4=O` [Lestaurtinib] + COC(=O)c1sccc1S(=O)(=O)Nc1ccc(Nc2ccccc2)cc1OC [GSK0660] (first compound 0.004 µM, partner dose 1 µM) to `Oc1cc(-c2nc(-c3ccccc3)[nH]c2-c2ccncc2)ccc1Cl` + O=C(Oc1ccc([N+](=O)[O-])cc1)N1CCC(C(O)(c2ccc3c(c2)OCO3)c2ccc3c(c2)OCO3)CC1 [JZL184] (first compound 0.2 µM, partner dose 1 µM), the “cleaved PARP positive nuclei fraction” value rises from 28.3% to 209%.

Compared with `C[C@]12O[C@H](C[C@]1(O)CO)n1c3ccccc3c3c4c(c5c6ccccc6n2c5c31)CNC4=O` [Lestaurtinib] + CC1(C)NC(=O)N(c2ccc([N+](=O)[O-])c(C(F)(F)F)c2)C1=O [nilutamide] (first compound 0.004 µM, partner dose 1 µM), `COC(=O)c1sccc1S(=O)(=O)Nc1ccc(Nc2ccccc2)cc1OC` + C/C(O)=C(\C#N)C(=O)Nc1cc(Br)ccc1Br [LFM-A13] (first compound 1 µM, partner dose 2 µM) is higher in “cleaved PARP positive nuclei fraction” value: 45.1% for the first, 73.6% for the second.

Going from `C[C@]12O[C@H](C[C@]1(O)CO)n1c3ccccc3c3c4c(c5c6ccccc6n2c5c31)CNC4=O` [Lestaurtinib] + O=S(=O)(c1ccccc1)N(CC(F)(F)F)c1ccc(C(O)(C(F)(F)F)C(F)(F)F)cc1 [T0901317] (first compound 0.004 µM, partner dose 1.4 µM) to `Cc1cc(SCc2sc(-c3ccc(C(F)(F)F)c(F)c3)nc2C)ccc1OCC(=O)O` + C/C(O)=C(\C#N)C(=O)Nc1cc(Br)ccc1Br [LFM-A13] (first compound 2 µM, partner dose 2 µM), the “cleaved PARP positive nuclei fraction” value rises from 64.8% to 110%.

First: C[C@@H]1CCN(C(=O)CC#N)C[C@@H]1N(C)c1ncnc2[nH]ccc12 + C/C(O)=C(\C#N)C(=O)Nc1cc(Br)ccc1Br [LFM-A13] (first compound 1 µM, partner dose 2 µM)
Second: C[C@]12O[C@H](C[C@]1(O)CO)n1c3ccccc3c3c4c(c5c6ccccc6n2c5c31)CNC4=O [Lestaurtinib] + O=C(O)c1ccc(-c2c[nH]c3ncc(-c4ccccc4)cc23)cc1C1CCCC1 [GSK650394] (first compound 0.004 µM, partner dose 0.16 µM)
The “cleaved PARP positive nuclei fraction” value of the first is lower: 24.7% for the first, 57.2% for the second.

Compared with `C[As](C)SC[C@H](NC(=O)CC[C@H](N)C(=O)O)C(=O)NCC(=O)O` [Darinaparsin] + O=C(Nc1ccccc1)c1cc([N+](=O)[O-])ccc1Cl [GW9662] (first compound 0.4 µM, partner dose 2 µM), `COc1ccc2c(c1)CCC1C2CCC2(C)C(NCCCCCCN3C(=O)C=CC3=O)CCC12` (stereo not given) + C/C(O)=C(\C#N)C(=O)Nc1cc(Br)ccc1Br [LFM-A13] (first compound 0.4 µM, partner dose 2 µM) is lower in “cleaved PARP positive nuclei fraction” value: 102% for the first, 48.8% for the second.

In the case of `C[C@]12O[C@H](C[C@]1(O)CO)n1c3ccccc3c3c4c(c5c6ccccc6n2c5c31)CNC4=O` [Lestaurtinib] + Oc1cc(-c2nc(-c3ccccc3)[nH]c2-c2ccncc2)ccc1Cl [L779450] (first compound 0.004 µM, partner dose 0.2 µM), the “cleaved PARP positive nuclei fraction” value is reported as 28.3%.
